Results are given in words; binding and its absence hold for the method and conditions named. Binding calls can cover weak binding; strength is not graded here.
How the values were obtained:
[1] = molecular target: Fam20C, recombinantly purified (UniProt Q8IXL6); assay: negative-stain single particle electron microscopy; Fam20A/20C complexes mixed with or without ATP (250 μM), purified by size exclusion chromatography, diluted to 40 nM, 2% uranyl acetate, 2D class averages; both purified
[2] = molecular target: Fam20C, recombinantly purified (UniProt Q8IXL6); assay: SEC; purified Fam20A and Fam20C mixed, Fam20A in slight excess, gel filtration in the absence or presence of 250 μM ATP; both purified

Amino acid sequences for entries named in this document (tags omitted). A change or cut given only in a name is not applied to a line headed by its entry.
UniProt Q8IXL6: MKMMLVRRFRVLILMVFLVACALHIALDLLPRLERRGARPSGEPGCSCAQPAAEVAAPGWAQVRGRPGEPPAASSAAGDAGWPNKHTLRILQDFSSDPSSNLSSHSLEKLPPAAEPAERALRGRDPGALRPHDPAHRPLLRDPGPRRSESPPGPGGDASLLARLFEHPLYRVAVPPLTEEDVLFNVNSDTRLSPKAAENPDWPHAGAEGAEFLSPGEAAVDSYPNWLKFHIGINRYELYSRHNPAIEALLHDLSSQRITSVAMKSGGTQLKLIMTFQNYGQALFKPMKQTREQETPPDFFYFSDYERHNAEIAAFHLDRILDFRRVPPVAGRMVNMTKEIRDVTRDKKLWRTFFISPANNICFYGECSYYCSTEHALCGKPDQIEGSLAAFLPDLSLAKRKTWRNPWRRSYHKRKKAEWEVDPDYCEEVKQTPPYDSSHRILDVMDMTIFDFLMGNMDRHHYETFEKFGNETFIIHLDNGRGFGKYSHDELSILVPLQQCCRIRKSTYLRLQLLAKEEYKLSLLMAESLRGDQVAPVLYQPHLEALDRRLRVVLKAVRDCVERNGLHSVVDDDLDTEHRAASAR

B1: Human Fam20A residues 69–529 (domain or fragment, UniProt Q96MK3 69-529, looked up)
chain: HNFSRTEPRTEPAGGSHSGSSSKLQALFAHPLYNVPEEPPLLGAEDSLLASQEALRYYRRKVARWNRRHKMYREQMNLTSLDPPLQLRLEASWVQFHLGINRHGLYSRSSPVVSKLLQDMRHFPTISADYSQDEKALLGACDCTQIVKPSGVHLKLVLRFSDFGKAMFKPMRQQRDEETPVDFFYFIDFQRHNAEIAAFHLDRILDFRRVPPTVGRIVNVTKEILEVTKNEILQSVFFVSPASNVCFFAKCPYMCKTEYAVCGNPHLLEGSLSAFLPSLNLAPRLSVPNPWIRSYTLAGKEEWEVNPLYCDTVKQIYPYNNSQRLLNVIDMAIFDFLIGNMDRHHYEMFTKFGDDGFLIHLDNARGFGRHSHDEISILSPLSQCCMIKKKTLLHLQLLAQADYRLSDVMRESLLEDQLSPVLTEPHLLALDRRLQTILRTVEGCIVAHGQQSVIVDGPVEQ
notes: Fam20A, human, residues 69-529, secreted from a modified pI-secSUMOstar vector; the 6xHis-SUMO tag was removed by TEV protease; The only purified Fam20A construct that the methods describe; also called untagged Fam20A; purified Fam20A; source: Hi5 insect cells (baculovirus), conditioned medium, purified (Ni-NTA, Resource Q, Superdex 200); not shown: 6xHis, N-terminal, cleaved; SUMO, N-terminal, …
With B1 the binding [1] was “binds” and the binding [2] was “binds”.

Reference: PMC5413348, “Structure of Fam20A reveals a pseudokinase featuring a unique disulfide pattern and inverted ATP-binding” (eLife, 2017)
